The values below come from paper PMC7030922.

Amino acid sequences for entries named in this document (tags omitted). A change or cut given only in a name is not applied to a line headed by its entry. Residues count along the entry.
UniProt P61264: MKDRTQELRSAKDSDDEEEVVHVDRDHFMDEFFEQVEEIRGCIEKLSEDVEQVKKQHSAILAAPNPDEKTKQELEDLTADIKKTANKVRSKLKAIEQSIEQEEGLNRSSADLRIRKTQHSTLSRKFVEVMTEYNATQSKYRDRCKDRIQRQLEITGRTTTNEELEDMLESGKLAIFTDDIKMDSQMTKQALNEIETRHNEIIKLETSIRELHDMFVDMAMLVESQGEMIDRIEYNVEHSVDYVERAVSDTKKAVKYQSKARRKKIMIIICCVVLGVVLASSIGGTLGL
UniProt P23818: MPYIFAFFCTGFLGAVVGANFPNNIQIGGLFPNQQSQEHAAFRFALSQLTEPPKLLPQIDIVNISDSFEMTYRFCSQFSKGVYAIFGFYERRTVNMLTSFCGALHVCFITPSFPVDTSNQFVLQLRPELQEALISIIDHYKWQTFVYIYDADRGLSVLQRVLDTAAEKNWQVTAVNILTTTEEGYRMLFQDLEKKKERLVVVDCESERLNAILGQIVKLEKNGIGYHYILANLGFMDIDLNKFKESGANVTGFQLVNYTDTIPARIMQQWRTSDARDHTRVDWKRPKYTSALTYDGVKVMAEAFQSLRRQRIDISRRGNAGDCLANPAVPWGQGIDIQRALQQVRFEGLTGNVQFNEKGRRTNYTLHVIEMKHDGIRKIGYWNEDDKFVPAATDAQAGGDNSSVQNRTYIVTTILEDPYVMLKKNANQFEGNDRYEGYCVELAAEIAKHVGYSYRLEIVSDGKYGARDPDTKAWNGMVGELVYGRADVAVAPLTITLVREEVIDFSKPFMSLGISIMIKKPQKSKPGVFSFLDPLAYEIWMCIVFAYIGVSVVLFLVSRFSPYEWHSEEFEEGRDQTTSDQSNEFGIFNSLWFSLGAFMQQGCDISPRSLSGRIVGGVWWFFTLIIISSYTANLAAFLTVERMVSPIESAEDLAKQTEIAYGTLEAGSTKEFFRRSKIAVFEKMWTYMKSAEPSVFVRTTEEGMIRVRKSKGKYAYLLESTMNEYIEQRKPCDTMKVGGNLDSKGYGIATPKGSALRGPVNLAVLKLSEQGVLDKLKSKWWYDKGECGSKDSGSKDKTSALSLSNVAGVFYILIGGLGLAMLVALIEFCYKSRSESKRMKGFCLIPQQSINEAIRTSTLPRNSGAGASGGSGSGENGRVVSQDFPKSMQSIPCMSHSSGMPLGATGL
UniProt P23819: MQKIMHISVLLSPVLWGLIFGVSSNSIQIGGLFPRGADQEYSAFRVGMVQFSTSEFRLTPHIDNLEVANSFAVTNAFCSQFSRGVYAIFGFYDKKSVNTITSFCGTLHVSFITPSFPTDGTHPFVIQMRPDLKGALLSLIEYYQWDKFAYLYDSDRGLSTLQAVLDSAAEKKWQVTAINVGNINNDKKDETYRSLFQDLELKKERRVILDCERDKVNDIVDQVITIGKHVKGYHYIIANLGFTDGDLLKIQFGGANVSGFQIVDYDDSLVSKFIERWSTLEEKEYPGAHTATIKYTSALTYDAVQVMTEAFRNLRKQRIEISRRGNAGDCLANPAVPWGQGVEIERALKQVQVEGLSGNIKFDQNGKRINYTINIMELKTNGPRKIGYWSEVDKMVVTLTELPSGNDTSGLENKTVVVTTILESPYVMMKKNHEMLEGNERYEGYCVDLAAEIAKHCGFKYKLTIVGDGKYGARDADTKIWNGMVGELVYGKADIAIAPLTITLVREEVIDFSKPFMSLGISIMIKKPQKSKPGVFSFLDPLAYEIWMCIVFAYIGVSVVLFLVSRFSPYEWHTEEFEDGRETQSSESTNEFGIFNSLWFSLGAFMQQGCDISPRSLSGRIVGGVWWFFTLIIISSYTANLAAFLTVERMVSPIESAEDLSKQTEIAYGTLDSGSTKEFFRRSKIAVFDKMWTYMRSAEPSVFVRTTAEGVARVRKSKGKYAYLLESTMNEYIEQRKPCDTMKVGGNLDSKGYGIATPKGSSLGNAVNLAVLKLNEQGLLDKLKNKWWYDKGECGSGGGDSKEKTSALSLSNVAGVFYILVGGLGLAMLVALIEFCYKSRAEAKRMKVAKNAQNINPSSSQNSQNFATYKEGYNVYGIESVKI
UniProt Q9Z2W9: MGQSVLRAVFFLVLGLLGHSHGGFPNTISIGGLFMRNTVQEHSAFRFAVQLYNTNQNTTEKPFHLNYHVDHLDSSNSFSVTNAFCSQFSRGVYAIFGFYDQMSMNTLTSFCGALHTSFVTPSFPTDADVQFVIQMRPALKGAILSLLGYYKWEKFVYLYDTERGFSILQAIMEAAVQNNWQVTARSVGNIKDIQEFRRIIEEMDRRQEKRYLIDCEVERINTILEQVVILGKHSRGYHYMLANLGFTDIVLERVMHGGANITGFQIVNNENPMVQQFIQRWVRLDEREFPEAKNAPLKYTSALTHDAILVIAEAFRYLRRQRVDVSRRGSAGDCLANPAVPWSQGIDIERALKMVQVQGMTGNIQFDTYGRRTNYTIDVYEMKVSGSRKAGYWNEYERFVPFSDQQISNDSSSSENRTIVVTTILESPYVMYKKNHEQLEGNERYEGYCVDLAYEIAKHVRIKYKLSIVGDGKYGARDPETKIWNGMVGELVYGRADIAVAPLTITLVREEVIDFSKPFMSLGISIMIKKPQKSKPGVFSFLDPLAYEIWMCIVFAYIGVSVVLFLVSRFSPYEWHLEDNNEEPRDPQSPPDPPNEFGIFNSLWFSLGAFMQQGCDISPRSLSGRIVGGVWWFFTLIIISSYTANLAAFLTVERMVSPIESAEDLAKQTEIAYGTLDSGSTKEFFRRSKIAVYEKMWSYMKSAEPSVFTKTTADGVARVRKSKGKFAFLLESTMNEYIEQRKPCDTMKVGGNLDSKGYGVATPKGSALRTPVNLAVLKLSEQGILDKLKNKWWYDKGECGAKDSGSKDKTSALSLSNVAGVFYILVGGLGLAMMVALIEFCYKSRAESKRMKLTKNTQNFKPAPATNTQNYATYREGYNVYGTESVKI
UniProt Q9Z2W8: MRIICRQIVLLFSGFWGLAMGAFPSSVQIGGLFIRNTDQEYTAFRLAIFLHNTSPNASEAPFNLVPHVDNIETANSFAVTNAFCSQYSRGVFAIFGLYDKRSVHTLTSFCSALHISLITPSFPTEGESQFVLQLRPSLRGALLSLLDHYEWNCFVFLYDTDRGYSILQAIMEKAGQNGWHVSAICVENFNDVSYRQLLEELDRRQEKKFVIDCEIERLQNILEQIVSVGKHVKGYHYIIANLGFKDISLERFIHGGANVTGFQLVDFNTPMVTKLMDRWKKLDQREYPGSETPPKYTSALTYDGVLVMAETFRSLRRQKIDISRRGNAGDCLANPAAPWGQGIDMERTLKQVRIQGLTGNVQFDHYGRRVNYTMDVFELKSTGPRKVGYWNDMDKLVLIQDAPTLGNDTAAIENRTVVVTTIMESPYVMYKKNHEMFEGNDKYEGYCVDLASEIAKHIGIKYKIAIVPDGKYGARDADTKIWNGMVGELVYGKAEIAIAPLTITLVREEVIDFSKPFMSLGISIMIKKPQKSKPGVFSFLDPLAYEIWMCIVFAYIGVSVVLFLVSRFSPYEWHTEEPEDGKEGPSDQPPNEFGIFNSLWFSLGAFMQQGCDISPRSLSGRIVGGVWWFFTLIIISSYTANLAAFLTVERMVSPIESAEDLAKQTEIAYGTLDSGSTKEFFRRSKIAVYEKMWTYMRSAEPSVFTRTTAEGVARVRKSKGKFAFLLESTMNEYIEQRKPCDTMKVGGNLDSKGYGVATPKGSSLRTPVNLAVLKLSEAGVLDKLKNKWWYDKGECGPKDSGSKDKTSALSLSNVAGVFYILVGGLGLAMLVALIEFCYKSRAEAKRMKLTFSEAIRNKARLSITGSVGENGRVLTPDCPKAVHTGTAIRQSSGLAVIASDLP
UniProt P60879: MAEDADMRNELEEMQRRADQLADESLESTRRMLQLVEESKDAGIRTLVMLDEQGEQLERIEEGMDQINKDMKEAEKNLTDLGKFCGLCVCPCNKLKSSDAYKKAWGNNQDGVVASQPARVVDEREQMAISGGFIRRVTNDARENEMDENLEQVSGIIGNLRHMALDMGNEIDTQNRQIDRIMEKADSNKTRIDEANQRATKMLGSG
UniProt O08599: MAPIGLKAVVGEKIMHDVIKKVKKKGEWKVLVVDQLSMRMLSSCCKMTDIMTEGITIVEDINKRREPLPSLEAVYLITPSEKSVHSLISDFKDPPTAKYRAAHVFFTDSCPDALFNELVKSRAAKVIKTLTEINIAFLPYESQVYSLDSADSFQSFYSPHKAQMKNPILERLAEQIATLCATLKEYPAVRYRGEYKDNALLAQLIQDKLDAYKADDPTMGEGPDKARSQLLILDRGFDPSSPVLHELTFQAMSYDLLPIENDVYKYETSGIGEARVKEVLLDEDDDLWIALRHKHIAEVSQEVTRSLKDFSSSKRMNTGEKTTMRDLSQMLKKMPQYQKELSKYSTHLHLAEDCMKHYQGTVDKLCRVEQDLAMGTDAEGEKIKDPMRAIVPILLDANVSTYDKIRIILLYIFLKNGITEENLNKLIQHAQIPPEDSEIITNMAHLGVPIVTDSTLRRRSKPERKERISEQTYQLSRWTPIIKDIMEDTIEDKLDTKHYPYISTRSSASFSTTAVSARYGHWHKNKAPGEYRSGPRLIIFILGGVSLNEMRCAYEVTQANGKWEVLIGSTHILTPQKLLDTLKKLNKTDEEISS
UniProt O88998, residues 17-485: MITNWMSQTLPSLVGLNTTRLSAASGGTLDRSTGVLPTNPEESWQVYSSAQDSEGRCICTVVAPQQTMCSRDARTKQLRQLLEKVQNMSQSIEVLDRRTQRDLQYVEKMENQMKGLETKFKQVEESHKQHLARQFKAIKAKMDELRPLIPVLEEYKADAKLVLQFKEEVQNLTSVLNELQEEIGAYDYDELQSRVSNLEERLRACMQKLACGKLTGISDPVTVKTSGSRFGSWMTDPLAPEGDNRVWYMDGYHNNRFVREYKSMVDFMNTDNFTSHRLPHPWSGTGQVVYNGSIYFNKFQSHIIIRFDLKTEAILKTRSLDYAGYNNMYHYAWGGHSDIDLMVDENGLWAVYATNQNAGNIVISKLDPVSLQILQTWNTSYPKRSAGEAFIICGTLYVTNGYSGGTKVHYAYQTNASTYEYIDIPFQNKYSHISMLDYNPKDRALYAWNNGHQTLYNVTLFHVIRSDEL

These are yes or no findings as the source states them, for the method shown. Binding seen in cells or lysates may run through a third protein. Some results given as binding are weak or reduced against the parent protein; the word gives no strength.

For experiment [1], the target named is Stx1b (mouse (endogenous in hippocampus and cerebellum)) (UniProt P61264). Description: cross-linking; 1 mM DSSO, 1 hour at room temperature, on freshly isolated synaptosomes and microsomes from mouse hippocampus and cerebellum; Lys-Lys cross-links identified by mass spectrometry (XlinkX v2.0, 2% FDR).
In experiment [2] the target is AMPAR complex (Gria1–4) (mouse (endogenous in hippocampus and cerebellum)) (UniProt P23818+P23819+Q9Z2W9+Q9Z2W8). The description is as above.

As to Snap25 (from UniProt P60879 1-206), in experiment [1], the binding result is on record as “binds”.
As for Stxbp1 (from UniProt O08599 1-594), in experiment [1], the binding result was “binds”.
For Olfm1 (from UniProt O88998 17-485), the binding entry in experiment [2] is “binds”.
